# Results reported in patent US6953779B2, “Melanocortin receptor antagonists and modulations of melanocortin receptor activity” (The Regents of the University of California, priority 1998, dated 2005).
# Some results were stated once for a whole list of compounds, not compound by compound. Square brackets hold non-standard residues; d marks the D form. Peptide text beside a SMILES is read from it. pGlu = O=C1CC[C@@H](C(=O)O)N1
# Molecular target: T1, MC receptors endogenous to Xenopus melanophores (Xenopus laevis, UniProt A0A1L8GF34)
# T1 sequence (A0A1L8GF34 1-317): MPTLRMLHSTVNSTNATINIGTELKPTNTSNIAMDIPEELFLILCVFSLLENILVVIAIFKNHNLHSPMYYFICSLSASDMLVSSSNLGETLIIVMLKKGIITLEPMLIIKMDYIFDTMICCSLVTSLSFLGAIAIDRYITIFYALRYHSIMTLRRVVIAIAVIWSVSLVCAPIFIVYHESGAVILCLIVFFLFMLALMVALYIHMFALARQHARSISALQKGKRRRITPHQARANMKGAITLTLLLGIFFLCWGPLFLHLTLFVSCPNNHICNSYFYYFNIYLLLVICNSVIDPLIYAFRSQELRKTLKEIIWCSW
# Assay: Antagonism of α-MSH darkening (pigment dispersion, absorbance) in Xenopus frog melanophores
# Assay type: cell-based
# Conditions: peptides which inhibit heat-induced edema; read-out: IC50 in the frog MCR assay
row,Compound,IC50 [µM]
1,CC[C@H](C)[C@H](NC(=O)[C@H](Cc1c[nH]c2ccccc12)NC(=O)[C@@H]1CCCN1C(=O)[C@H](CCCNC(=N)N)NC(=O)[C@H](N)CCCNC(=N)N)C(=O)N[C@@H](CC(C)C)C(=O)O [D-Arg-Arg-Pro-Trp-Ile-Leu] (H-[dR]RPWIL-OH; N-terminus and C-terminus assumed),> 10
2,CC[C@H](C)[C@H](NC(=O)[C@@H](NC(=O)[C@H](CCC(=O)O)NC(=O)[C@H](CCSC)NC(=O)[C@H](CC(C)C)NC(=O)[C@H](CCCCN)NC(=O)[C@H](CCCNC(=N)N)NC(=O)[C@H](CC(N)=O)NC(=O)[C@H](CO)NC(=O)[C@H](Cc1c[nH]cn1)NC(=O)[C@H](C)NC(=O)[C@H](CCC(N)=O)NC(=O)[C@H](CCC(N)=O)NC(=O)[C@H](C)NC(=O)[C@H](CC(C)C)NC(=O)[C@H](CCC(N)=O)NC(=O)[C@H](CCC(=O)O)NC(=O)[C@H](C)NC(=O)[C@H](CCCNC(=N)N)NC(=O)[C@H](C)NC(=O)[C@H](CCSC)NC(=O)[C@H](CCC(=O)O)NC(=O)[C@H](CC(C)C)NC(=O)[C@@H](NC(=O)[C@H](CCC(=O)O)NC(=O)[C@H](CCCNC(=N)N)NC(=O)[C@H](CC(C)C)NC(=O)[C@H](CC(C)C)NC(=O)[C@H](Cc1c[nH]cn1)NC(=O)[C@H](Cc1ccccc1)NC(=O)[C@@H](NC(=O)[C@H](CC(C)C)NC(=O)[C@H](CC(=O)O)NC(=O)[C@H](CC(C)C)NC(=O)[C@H](CO)NC(=O)[C@@H](NC(=O)[C@@H]1CCCN1C(=O)[C@@H]1CCCN1C(=O)[C@H](CCC(=O)O)NC(=O)[C@H](CCC(=O)O)NC(=O)[C@@H](N)CO)[C@@H](C)CC)[C@@H](C)O)C(C)C)[C@@H](C)CC)C(N)=O [human CRH],> 10
3,CC[C@H](C)[C@H](NC(=O)[C@H](CO)NC(=O)[C@H](CC(C)C)NC(=O)[C@@H]1CCCN1C(=O)[C@@H]1CCCN1C(=O)[C@H](CC(=O)O)NC(=O)[C@@H](N)CC(=O)O)C(=O)N[C@@H](CC(=O)O)C(=O)N[C@@H](CC(C)C)C(=O)N[C@H](C(=O)N[C@@H](Cc1ccccc1)C(=O)N[C@@H](Cc1c[nH]cn1)C(=O)N[C@@H](CC(C)C)C(=O)N[C@@H](CC(C)C)C(=O)N[C@@H](CCCNC(=N)N)C(=O)N[C@H](C(=O)N[C@@H](CC(C)C)C(=O)N[C@@H](CC(C)C)C(=O)N[C@@H](CCC(=O)O)C(=O)N[C@@H](CC(C)C)C(=O)N[C@@H](C)C(=O)N[C@@H](CCCNC(=N)N)C(=O)N[C@H](C(=O)N[C@@H](CCC(N)=O)C(=O)N[C@@H](CO)C(=O)N[C@@H](CCC(N)=O)C(=O)N[C@@H](CCCNC(=N)N)C(=O)N[C@@H](CCC(=O)O)C(=O)N[C@@H](CCCNC(=N)N)C(=O)N[C@@H](C)C(=O)N[C@@H](CCC(=O)O)C(=O)N[C@@H](CCC(N)=O)C(=O)N[C@@H](CC(N)=O)C(=O)N[C@@H](CCCNC(=N)N)C(=O)N[C@H](C(=O)N[C@H](C(=O)N[C@@H](Cc1ccccc1)C(=O)N[C@@H](CC(=O)O)C(=O)N[C@@H](CO)C(=O)N[C@H](C(N)=O)C(C)C)[C@@H](C)CC)[C@@H](C)CC)[C@@H](C)O)[C@@H](C)O)[C@@H](C)O [urocortin],> 10
4,CC[C@H](C)[C@H](NC(=O)[C@H](Cc1c[nH]c2ccccc12)NC(=O)[C@@H]1CCCN1C(=O)[C@H](CCCNC(=N)N)NC(=O)[C@H](CCCCN)NC(=O)CNC(=O)[C@@H]1CCC(=O)N1)C(=O)N[C@@H](CC(C)C)C(=O)O [xenopsin] ([pGlu]GKRPWIL-OH; C-terminus assumed),> 10
